The results in this text go back to patent US20190202925A1.

By UniProt entry, the sequences of proteins in these tests, tags left out. Residues count along the entry.
UniProt P20333, residues 23-257: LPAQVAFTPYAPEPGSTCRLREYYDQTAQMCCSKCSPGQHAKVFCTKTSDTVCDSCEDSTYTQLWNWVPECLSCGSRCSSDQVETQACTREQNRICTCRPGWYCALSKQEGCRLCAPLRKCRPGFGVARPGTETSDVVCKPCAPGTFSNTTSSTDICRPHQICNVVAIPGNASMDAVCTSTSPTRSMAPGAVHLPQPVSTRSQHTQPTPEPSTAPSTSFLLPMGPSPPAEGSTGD

These are yes or no findings as the source states them, for the method shown. Some binding calls cover weakened binding; strength is not graded here.

First the molecules themselves.
B1: hSBT-002a (antibody, V domains shown)
VH: QVTLKESGPALVKPTQTLTLTCTFSGFSLSTSGMGVGWIRQPPGKALEWLAHIWWDDDKFYNPSLKSRLTISKDTSKNQVVLTMTNMDPVDTATYYCARITGTRYFDYWGQGTTVTVSS
VL: DIQMTQSPSSLSASVGDRVTITCKASQDINKFIAWYQQKPGKAPKLLIYYTSTLQPGVPSRFSGSGSGTDFTFTISSLQPEDIATYYCLQYGNLWTFGGGTKVEIK
B2: hSBT-002d (antibody, V domains shown)
VH: QVTLKESGPALVKPTQTLTLTCTFSGFSLSTSGMGVGWIRQPPGKALEWLAHIWWDDDKFYNPSLKSQLTISKDTSKNQVVLTMTNMDPVDTATYYCARITGTRYFDYWGQGTTVTVSS
VL: DVQMTQSPSSLSASVGDRVTITCKASQDINKFIAWYQQKPGKAPKLLIHYTSTLQPGIPSRFSGSGSGRDYTFTISSLQPEDIATYYCLQYGNLWTFGGGTKVEIK
B3: hSBT-002e (antibody, V domains shown)
VH: QVTLKESGPALVKPTQTLTLTCTFSGFSLSTSGMGVGWIRQPPGKALEWLAHIWWDDDKFYNPSLKSRLTISKDTSKNQVVLTMTNMDPVDTATYYCARLTGTRYFDYWGQGTTVTVSS
VL: DVQMTQSPSSLSASVGDRVTITCKASQDINKFIAWYQQKPGKAPKLLIHYTSTLQPGIPSRFSGSGSGRDYTFTISSLQPEDIATYYCLQYGNLWTFGGGTKVEIK
B4: hSBT-002b (antibody, V domains shown)
VH: QVTLKESGPALVKPTQTLTLTCTFSGFSLSTSGMGVGWIRQPPGKALEWLAHIWWDDDKFYNPSLKSQLTISKDTSKNQVVLTMTNMDPVDTATYYCARITGTRYFDYWGQGTTVTVSS
VL: DVQMTQSPSSLSASVGDRVTITCKASQDINKFIAWYQQKPGKAPKLLIHYTSTLQPGIPSRFSGSGSGTDFTFTISSLQPEDIATYYCLQYGNLWTFGGGTKVEIK
B5: hSBT-002c (antibody, V domains shown)
VH: QVTLKESGPALVKPTQTLTLTCTFSGFSLSTSGMGVGWIRQPPGKALEWLAHIWWDDDKFYNPSLKSRLTISKDTSKNQVVLTMTNMDPVDTATYYCARLTGTRYFDYWGQGTTVTVSS
VL: DVQMTQSPSSLSASVGDRVTITCKASQDINKFIAWYQQKPGKAPKLLIHYTSTLQPGIPSRFSGSGSGTDFTFTISSLQPEDIATYYCLQYGNLWTFGGGTKVEIK
B6: chimeric SBT-003 (antibody, V domains shown)
VH: QIQLVQSGPELKKPGETVKISCKASGYTFTDYSMHWVKQAPGKGLKWMGWINTETGEPTYADDFKGRFAFSSETSTSTAYLQINNLKNDDTTTYFCATYYGSSYVPDYWGQGTSLTVSS
VL: DIVMTQSHKFMSTSVGDRVSITCKASQNVGTAVAWYQHKPGQSPKLLIYWTSSRHTGVPDRFTGSGSGTEFTLTISNVQSEDLADYFCHQYSDYPYTFGGGTKLEIK
B7: chimeric SBT-002 (antibody, V domains shown)
VH: QVTLKESGPGILQPSQTLSLTCSFSGFSLSTSGMGVGWIRQPSGKGLEWLAHIWWDDDKFYNPSLKSQLTISKDTSRNQVFLKLTSVVTADTATYYCARLTGTRYFDYWGQGTTLTVSS
VL: DVQMTQSPSSLSASLGGKVTITCKASQDINKFIAWYQHKPGKGPRLLIHYTSTLQPGIPSKFSGSGSGRDYSFSISNLEPEDIATYYCLQYGNLWTFGGGTKLEIT
B8: chimeric SBT-001 (antibody, V domains shown)
VH: EVQLQQSGAELVKPGASVKISCKASGYTFTDYNMDWVKQSHGKSLEWIGDINPNYESTSYNQKFKGKATLTVDKSSSTAYMEVRSLTSEDTAVFYCARDKGWYFDVWGAGTTVTVSS
VL: ENVLTQSPAIMSASLGEKVTMSCRASSSVKNMYWYQQKSDASPKLWIYYTSNLAPGVPARFSGSGSGNSYSLTISSMEGEDAATYYCQQFTSSPYTFGGGTKLELK
B9: chimeric SBT-004 (antibody, V domains shown)
VH: EVQLQQSGPEVGRPGSSVKISCKASGYTFTDYIMHWVKQSPGQGLEWIGWVDPEYGSTDYAEKFKKKATLTADTSSNTAYIQLSSLTSEDTATYFCARDDGSYSPFDYWGQGVMVTVSS
VL: DIQMTQSPPSLSASLGDKVTITCQASQNINKYIAWYQQKPGKAPRLLIRYTSTLESGTPSRFSGSGSGRDYSFSISNVESEDIASYYCLQYVNLLTFGAGTKLEIK
B10: SBT-001 (antibody, V domains shown)
VH: EVQLQQSGAELVKPGASVKISCKASGYTFTDYNMDWVKQSHGKSLEWIGDINPNYESTSYNQKFKGKATLTVDKSSSTAYMEVRSLTSEDTAVFYCARDKGWYFDVWGAGTTVTVSS
VL: ENVLTQSPAIMSASLGEKVTMSCRASSSVKNMYWYQQKSDASPKLWIYYTSNLAPGVPARFSGSGSGNSYSLTISSMEGEDAATYYCQQFTSSPYTFGGGTKLELK
B11: SBT-004 (antibody, V domains shown)
VH: EVQLQQSGPEVGRPGSSVKISCKASGYTFTDYIMHWVKQSPGQGLEWIGWVDPEYGSTDYAEKFKKKATLTADTSSNTAYIQLSSLTSEDTATYFCARDDGSYSPFDYWGQGVMVTVSS
VL: DIQMTQSPPSLSASLGDKVTITCQASQNINKYIAWYQQKPGKAPRLLIRYTSTLESGTPSRFSGSGSGRDYSFSISNVESEDIASYYCLQYVNLLTFGAGTKLEIK

For the first experiment, the target named is monomeric human TNFR2 extracellular domain (human) (UniProt P20333). Description: BLI (Octet Red 96), CHO supernatant antibody on anti-human Fc biosensor, 100 nM monomeric human TNFR2 ECD.
For B1, the binding entry is “binds”.
The same measure, in the same setting: the same measure for B2: “binds”; for B3: “binds”.
On the same count and under the same terms, the same measure for B4: “binds”.
The same measure, in the same setting: the same measure for B5: “binds”.

The next experiment addresses monomeric cynomolgus TNFR2 extracellular domain (cynomolgus monkey). Put plainly: BLI (Octet Red 96), antibody captured on Fc biosensor, monomeric TNFR2 ECD in solution. (In general: Biolayer interferometry detects binding as a change in optical thickness at a sensor tip.)
As to B6, the binding entry is “binds”.
B7: the binding result is recorded as “binds”.
Same read-out and setting: the same measure for B8: “binds”; for B9: “binds”.

Another experiment shares this target. Put plainly: BLI (Octet Red 96), antibody on anti-mouse Fc biosensor, monomeric TNFR2 ECD in solution.
Consider B10, for which the binding result is “binds”.
Turning to B11, the binding result is “binds”.

The target in the next experiment is monomeric human TNFR2 extracellular domain (human) (UniProt P20333). The description is as above.
For B11, the binding entry was “binds”.
